Experimental data as given in article PMC12617974.

By UniProt entry, the sequences of proteins in these tests, tags left out. Where a name states a change or a piece, a line headed by the entry shows the natural chain unless it says otherwise.
UniProt A0A509AML7: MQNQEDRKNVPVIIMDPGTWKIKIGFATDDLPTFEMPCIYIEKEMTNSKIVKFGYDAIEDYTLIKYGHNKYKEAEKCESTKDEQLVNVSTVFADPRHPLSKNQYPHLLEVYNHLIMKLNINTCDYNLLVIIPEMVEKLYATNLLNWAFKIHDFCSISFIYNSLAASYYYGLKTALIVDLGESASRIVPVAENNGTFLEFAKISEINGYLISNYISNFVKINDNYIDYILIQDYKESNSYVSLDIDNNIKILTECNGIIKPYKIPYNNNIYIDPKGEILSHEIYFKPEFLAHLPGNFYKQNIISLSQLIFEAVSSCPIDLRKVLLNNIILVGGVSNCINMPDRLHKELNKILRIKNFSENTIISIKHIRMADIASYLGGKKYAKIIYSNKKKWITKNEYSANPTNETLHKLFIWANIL

Target: Plasmodium berghei actin-like protein Alp5a, endogenously tagged with 3XHA (Alp5a-3XHA) (P. berghei)
Experiment: co-IP; purified gametocytes of Alp5a-3XHA parasites crosslinked with 5 mM DSP, lysed in RIPA buffer; anti-HA magnetic beads, 30 min at RT; blot probed with anti-HA and anti-Alp5b antibodies

binding: binds
Substance: Plasmodium berghei actin-like protein Alp5b (from UniProt A0A509AML7)

These are yes or no findings as the source states them, for the method shown. Binding seen in cells or lysates may run through a third protein. Binding calls can cover weak binding; strength is not graded here.
